From PubChem BioAssay AID1347431 (National Center for Advancing Translational Sciences (NCATS), 2020) come the findings set out here.

Hit rate of the full screen: of about 1,200 compounds, fewer than 10 were called active. Calls come from the whole dose curve; as a rule, active = well fitted curve in the direction sought with a large enough effect; inconclusive = small, poorly fitted or top-dose-only effect, or another doubt; inactive = no such curve, though single readings can be large or run the other way. Some of the results follow.

The nature of this assay: Confirmatory qHTS assay for inhibitors of Activation Induced Cytidine Deaminase (AID): UDG signals. Note: 0% is about no effect. Particulars: UDG coupled enzyme activity counter-screen; at 115 µM (top of the series) unless noted. A digest of the protocol:
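UDG readout, a counterscreen: AID (1 uM, 4/3x) plus UDG (2 U/mL, 4/3x) preincubated 10 min with compound (7.32 nM - 114 uM final), then 4 h with DJC20/DJC23 substrates at room temperature; NaOH added, fluorescence read at 560/665 nm.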
As for `O=C(c1ccccc1Cl)N1CCCC(c2nc3c(nnn3Cc3ccc(F)cc3F)c(=O)[nH]2)C1` (configuration not stated), the activity change, negative = inhibition is inactive: 0.732%.

As for `COc1ccc(-n2c(Cc3ccccc3)nnc2SCc2nc(-c3ccccc3C)no2)cc1`, the activity change, negative = inhibition was inactive: -23.7%.

Take `Cc1c(C(=O)N(C)c2ccccc2)sc2nc(-c3ccc(F)cc3)cn12`: the activity change, negative = inhibition was inactive: -7.95%.

Turning to `COc1ccc(N2CCN(C(=O)c3cn(C4CCCCC4)c(=O)c4c3c3ccccc3n4C)CC2)cc1`, the activity change, negative = inhibition was inactive: -3.58%.

Take `CCn1c(CN2CCCCC2)nc2cc(NC(=O)COc3cc(C)ccc3C(C)C)ccc21`: the activity change, negative = inhibition was inactive: -16.7%.

As for `Cc1ccc(C)c(N2CCN(C(=O)c3cccn3-c3nnc(N4CCCCC4)s3)CC2)c1`, the activity change, negative = inhibition was inactive: -5.82%.

Consider `Cc1ccc(C)c(N2CCN(CCCNC(=O)c3ccc4nc(N5CCCCC5)sc4c3)CC2)c1`, for which the activity change, negative = inhibition was inactive: -9.97%.

For `O=C(CSc1nc2ccccc2nc1Cc1ccccc1)N1CCCCC1`, the activity change, negative = inhibition is inactive: -7%.

For the compound `Cn1nc(-c2ccccc2F)c2cc(C(=O)N3CCN(c4ccc(F)cc4)CC3)sc21`, the activity change, negative = inhibition is inactive: -17%.

Take `Cc1ccc(C)c(N2CCN(C(=O)Cn3nc(Cc4cccnc4)c4ccccc4c3=O)CC2)c1`: the activity change, negative = inhibition was inactive: -2.12%.

Turning to `COc1ccc(C(=O)c2cn(CC(=O)Nc3ccc4c(c3)OCCO4)c3ccc(OC)cc3c2=O)cc1`, the activity change, negative = inhibition was inactive: 0.0253%.

Take `CCOc1ccc(-n2c(CCC(=O)O)ccc2-c2ccc(Br)cc2)cc1`: the activity change, negative = inhibition was inactive: 12.7%.

As to `CCC(C(=O)N1CCN(c2ccccc2)CC1)n1nc(C)n2c(cc3sccc32)c1=O` (configuration not stated), the activity change, negative = inhibition is inactive: -0.471%.

On to `CCCOc1ccc(-c2nn(-c3ccccc3)cc2C2NC(=O)NC(C)=C2C(=O)OC(C)C)cc1` (configuration not stated), for which the activity change, negative = inhibition was inactive: -11.6%.

With `C=Cc1ccc(Cn2nc(-c3ccc(C)c(S(=O)(=O)N(CC)CC)c3)ccc2=O)cc1`, the activity change, negative = inhibition was inactive: -6.02%.

On to `Cn1nc(-c2ccc(C(=O)Nc3ccc(F)cc3)cc2)c2ccccc2c1=O`, for which the activity change, negative = inhibition was inactive: 2.76%.

`O=C(O)CSc1c2c(nc3cc(C(=O)Nc4ccc(F)c(Cl)c4)ccc13)CCC2`: the activity change, negative = inhibition is inactive: 9.97%.

Turning to `COc1cc(Cl)c(C)cc1NC(=O)c1ccc2c(SCC(=O)O)c3c(nc2c1)CCCC3`, the activity change, negative = inhibition is inactive: 2.41%.

With `CCCOc1c(Cl)cc(C(=O)N(Cc2cccc(OC)c2)C2CCS(=O)(=O)C2)cc1Cl` (configuration not stated), the activity change, negative = inhibition is inactive: -4.73%.

In the case of `O=C(NCc1ccccc1Cl)c1ccc2c(O)c(S(=O)(=O)c3ccccc3)c(=O)[nH]c2c1`, the activity change, negative = inhibition is inactive: 5.82%.

For the compound `Cc1ccccc1Cn1c(CN2CCN(c3cc(Cl)ccc3C)CC2)nc2c1c(=O)[nH]c(=O)n2C`, the activity change, negative = inhibition is inactive: -2.68%.

For the compound `CCCN1CCN(CCCNC(=O)c2ccc3c(c2)sc2nc(-c4ccc(OCC)cc4)cn23)CC1`, the activity change, negative = inhibition is inactive: -1.77%.
